Out of some 52,000 sequences screened, about 210 (0.4%) were called active.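 Rule for the calls: active = gene whose silencing raises cell survival under the drug, median off-target-corrected z-score across its silencing RNAs 2 or more; inactive = the rest.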 This is one part of the list.
Assay: Resistance to Poly (ADP-Ribose) Polymerase inhibitor: Gene Identification via Genome-wide siRNA Screen
Conditions: mouse BRCA2 R2336H ES cells, olaparib, CellTiter-Glo viability; stronger effect = higher value
In short: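 Mouse BRCA2 R2336H ES cells were reverse-transfected with siRNA (20 nM final), treated at 48 h with 500 nM olaparib, and read by CellTiter-Glo after 72 h. Scores: MAD-based z per siRNA, median per gene, seed off-target correction.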

Q: For CGACAAGAAGACUUCGAAUTT against Mnt, which z-score is on record?
A: inactive: 0.165

Q: Which z-score does the source give for CCUCAUGUAGCAUUUUUCUTT against Pex11b here?
A: inactive: 0.363

Q: For “GGCUCUCAAUUUUAUUUCUTT against D15Ertd785e”, which z-score is on record?
A: inactive: -0.0911

Q: With GCAAUAGGCAAUCUGGGAUTT against Olfr52 as the sequence, how does the z-score read?
A: inactive: 1.51

Q: With GGGAGCAUUUCCUUAUACUTT against Tpmt as the sequence, how does the z-score read?
A: inactive: 0.437

Q: For “CCCGCUUUCAGUCUUAACATT against 6330578E17Rik”, which z-score is on record?
A: inactive: 0.399

Q: Which z-score does the source give for GGCCAACUUGCUGGUAUUGTT against AF322649 here?
A: inactive: -0.0809

Q: Which z-score does the source give for GGAGCAGGUUGGCUAUUUGTT against Ppp6c here?
A: inactive: -0.738

Q: Which z-score does the source give for GGUCUCAAUAAACUUCAGGTT against Mfap4 here?
A: inactive: 2

Q: For GCAUCGUUGACUAAAGUGGTT against Grm3, which z-score is on record?
A: inactive: -0.445

Q: Which z-score does the source give for “CCUACAAGAACGAAGAUUUTT against 2610311B01Rik” here?
A: inactive: 0.886

Q: Which z-score does the source give for “GGAAAUGAAUGGAAAUAGUTT against D030070L09Rik” here?
A: inactive: 0.736

Q: Which z-score does the source give for CGCCACUAUCCUAACUUGCTT against Olfr963 here?
A: inactive: 1.26

Q: With CCAUAAUCUCUUUUCACUGTT against Fzd7 as the sequence, how does the z-score read?
A: inactive: 1.02

Q: With GGAUGAAAAGGGACAAAGATT against BC021790 as the sequence, how does the z-score read?
A: inactive: -1.68

Q: For “GCCUGUAGCAGAGAACUUUTT against 5330410G16Rik”, which z-score is on record?
A: inactive: 0.312

Q: With GCAAUGACAUCUUUUAGACTT against Gpr12 as the sequence, how does the z-score read?
A: inactive: -0.704

Q: With GGCUAGCCUUGAAUUUAUGTT against Trp53rk as the sequence, how does the z-score read?
A: inactive: -0.591

Q: With CCUUGCUCUUUCCAGCUCUTT against Olfr704 as the sequence, how does the z-score read?
A: inactive: 1.36

Q: Which z-score does the source give for “CAGAUGCAAGAAGAGAGAGTT against E130006D01Rik” here?
A: inactive: -0.73

Q: With CCGGACUCUAGAGGACUUUTT against Lalba as the sequence, how does the z-score read?
A: inactive: 0.333

Q: With GGCACAUGCCCUUUUCUACTT against Cog1 as the sequence, how does the z-score read?
A: inactive: 0.266

Q: With “GCUGUGCCCUAAAGACUGGTT against 4922502D21Rik” as the sequence, how does the z-score read?
A: inactive: 0.642

Q: For GGAGAGCAAAUUAAGUUCATT against Rab6ip2, which z-score is on record?
A: inactive: 0.12

Q: Which z-score does the source give for GGUGUUUACACAGAGAAUGTT against Gpr143 here?
A: inactive: -0.0228

Q: Which z-score does the source give for GGAUGAGUACAGCAUUCUGTT against Rhebl1 here?
A: inactive: -0.185

Q: Which z-score does the source give for GGAUCGAAUCUUUACCUAUTT against Col9a1 here?
A: inactive: 1.52

Q: For GGCAGUAAAUAGUAAGAAATT against Ccr9, which z-score is on record?
A: inactive: -0.437

Q: Which z-score does the source give for GGAGUUGGACCUGUCAGAGTT against Daxx here?
A: inactive: 0.456

Q: Which z-score does the source give for GGAAAACUGCUUUGAGCUGTT against Thap7 here?
A: inactive: 0.641

Q: For GGAACCAGAGAAAGAAGAUTT against Nfkbie, which z-score is on record?
A: inactive: -0.601

Q: Which z-score does the source give for GGGUUAGCAACUUCAAAUATT against Zmynd19 here?
A: inactive: -0.526

Q: For GGAAGUCUACAAGUGGCCATT against Nr1d1, which z-score is on record?
A: inactive: 1.13

Q: Which z-score does the source give for GGAGCAUUAUAUCAAUCCUTT against Zfp111 here?
A: inactive: 3.08

Q: For “CGGCUACCAAUCCAAGACATT against F830029L24Rik”, which z-score is on record?
A: inactive: 1.86

Q: Which z-score does the source give for GGAAGAGAAAUUCUUCCUCTT against Alg5 here?
A: inactive: 0.602

Q: Which z-score does the source give for GGAAAGCCGUAUAGUUGUATT against LOC244556 here?
A: inactive: 0.176

Q: For GCGCAAAUCUCUCUGUUCUTT against Krt1-24, which z-score is on record?
A: inactive: -2.13

Q: For “GGUUUCUUCCACAGGACCUTT against 1210002B07Rik”, which z-score is on record?
A: inactive: -1.08

Q: With GGAAGCAUUUCUUAAUUCATT against Ncoa4 as the sequence, how does the z-score read?
A: inactive: 0.162

Q: For GGAGUACGUUGACAUCAUCTT against Timp4, which z-score is on record?
A: inactive: -1.01

Q: With “GGAGCAUUCUUUGGUGAAGTT against 1700024B05Rik” as the sequence, how does the z-score read?
A: inactive: -1.42

Q: For “GCGUGAACCGUUUGAUGAGTT against 9030612E09Rik”, which z-score is on record?
A: inactive: 0.991

Q: For CGGAUUCCGCUGGAACUAUTT against Enpp7, which z-score is on record?
A: inactive: 1.25

Q: For GGAAAGGAGAGGUGUGUUCTT against Asb7, which z-score is on record?
A: inactive: 1.44

Q: With CGCUUCUAUAAACCUGACUTT against Mrpl3 as the sequence, how does the z-score read?
A: inactive: 0.168

Q: Which z-score does the source give for GGCCCAGCAAAAAAAGAAGTT against Usp46 here?
A: inactive: -0.453

Q: With “GGCAAAAUUAAAGCACAGUTT against 2810055F11Rik” as the sequence, how does the z-score read?
A: inactive: 0.334

Q: With GGUUCUUAACCUCAGCAGUTT against Omg as the sequence, how does the z-score read?
A: inactive: 0.118

Q: With GGUGAAGUACUUUUCGUUCTT against Slc1a3 as the sequence, how does the z-score read?
A: inactive: -0.0695

Q: For GGUCCUGGAGGCUUAUAAUTT against Sema3a, which z-score is on record?
A: inactive: -0.851

Q: With GCUACUCUCUAUUGGUUUUTT against Gpr45 as the sequence, how does the z-score read?
A: inactive: -0.405

Q: For GCGGUGUCCUAAAAUGCACTT against Nkx1-2, which z-score is on record?
A: inactive: 0.554

Q: For GGCUCCAAACAGAAUCUUGTT against Pmch, which z-score is on record?
A: inactive: -0.455

Q: With GGGAUCAGAACAAGUAUAATT against Kns2 as the sequence, how does the z-score read?
A: inactive: -2.38

Q: Which z-score does the source give for CCAAAUGACUAGCACCAGUTT against Arl12 here?
A: inactive: -1.19

Q: With GGAAAAAGUGACAAGCAAGTT against Svil as the sequence, how does the z-score read?
A: inactive: 0.21

Q: For GGCGAACUGAAGGAUAUGGTT against Anapc5, which z-score is on record?
A: inactive: 0.0137

Q: For GAGCAAUGAGCAGAGAUUCTT against H2-D4, which z-score is on record?
A: inactive: -0.409

Q: With GGUUCGAGUCUCUUACUCUTT against Pou4f3 as the sequence, how does the z-score read?
A: inactive: 0.0715

Q: Which z-score does the source give for GGCACCAAACUCAGCCUUATT against Csk here?
A: inactive: -1.25

Q: With GCAAACAUGUCAAGUCCGATT against Actl6b as the sequence, how does the z-score read?
A: inactive: 0.478

Q: With GGGCCAGAAUCCAAAUGCUTT against Tox as the sequence, how does the z-score read?
A: inactive: 0.536

Q: Which z-score does the source give for CCCUUUUGUUUAGCUGAUCTT against Glrp1 here?
A: inactive: 0.652

Q: With “GCCUUCUGAUUCAUUUUCUTT against 1500034E06Rik” as the sequence, how does the z-score read?
A: inactive: -0.0388

Q: With GGAAAUCAAGCUUUAGGGCTT against Myct1 as the sequence, how does the z-score read?
A: inactive: -0.182

Q: Which z-score does the source give for GGAAGAAGAAAGGCAGCUGTT against Parn here?
A: inactive: 2.06

Q: With GGUGGAGCCAUGUGCAUUGTT against Olfr1246 as the sequence, how does the z-score read?
A: inactive: -2.14

Q: For GGAUAUGAAGGAAUAUGUGTT against Leng8, which z-score is on record?
A: inactive: -1.48

Q: For GGAAGACAGAAAGUCAUUUTT against Chd1l, which z-score is on record?
A: inactive: -0.169

Q: Which z-score does the source give for “GGACUUGGUGCACUGAAGUTT against 9430095K15Rik” here?
A: inactive: -1.11

Q: For GGAAGAAGAAGUCUUACACTT against Rps27a, which z-score is on record?
A: inactive: -2.75

Q: Which z-score does the source give for CGAUUACUACAUAAUUGCCTT against Efnb3 here?
A: inactive: -1.03

Q: With GCUUGAAUCUCCCAAGAUATT against Jmjd2c as the sequence, how does the z-score read?
A: inactive: 1.37

Q: For CCACCUACCCUUUGAGUGGTT against Slc7a12, which z-score is on record?
A: inactive: 0.208

Q: With GGUUUGAGCUCUUUAUUUUTT against Cyp2j13 as the sequence, how does the z-score read?
A: inactive: 0.00818

Q: With GCAGUAAUGUCCAGGGACATT against Akt2 as the sequence, how does the z-score read?
A: inactive: 1.17

Q: For CCCAUUUGGAAUUAUUCCUTT against Arf4, which z-score is on record?
A: inactive: 0.86

Q: For GGGAAGCUGAUUAUACAUUTT against Serpinf1, which z-score is on record?
A: inactive: 1.67

Q: Which z-score does the source give for GACCUAAGCUCAUUGACCUTT against V1rc5 here?
A: inactive: 0.697

Q: With GCUUCUGUAAAUCCCAUAUTT against Olfr26 as the sequence, how does the z-score read?
A: inactive: 3.13

Q: With GGUACAUUAUCGGAUACAUTT against BC043301 as the sequence, how does the z-score read?
A: inactive: -0.542

Q: With GGAUAGUUGAAGUCCUAAATT against Il9 as the sequence, how does the z-score read?
A: inactive: 1.38

Q: With “GGAUUCGGACAAAACUACUTT against 2810013M15Rik” as the sequence, how does the z-score read?
A: inactive: -1.4

Q: For GGAACUGCUGUACAGGUACTT against Mest, which z-score is on record?
A: inactive: -0.0275

Q: For GGCAGCUUCUGUUCUUUUATT against Ube3c, which z-score is on record?
A: inactive: 0.466

Q: For GGACCUGCCAAAAGUUGUGTT against Uqcrc1, which z-score is on record?
A: inactive: -0.603

Q: For CCUGAUCCCAUGUAAAACATT against Sspn, which z-score is on record?
A: inactive: -0.859

Q: For GGCUAUGACAAUGCCUACATT against Maged2, which z-score is on record?
A: inactive: -0.707

Q: With GGGUUCAAGUCAGUGAUGUTT against Dnajb8 as the sequence, how does the z-score read?
A: inactive: 0.105

Q: Which z-score does the source give for CGGAGGGAAAUGACAUUGCTT against Acr here?
A: inactive: 0.505

Q: With GCUGUUCUGCCUCUAAGACTT against Zfp597 as the sequence, how does the z-score read?
A: inactive: -0.178

Q: For GUGAAUGGUCAGAAGUUUGTT against Elk4, which z-score is on record?
A: inactive: -0.01

Q: With GGCUAUCUGCUUAUGCUGGTT against Ptch2 as the sequence, how does the z-score read?
A: inactive: -0.153

Q: Which z-score does the source give for GGAAGUCUAUGUAGGUUCATT against Kif22 here?
A: inactive: -1.58

Q: Which z-score does the source give for GGUAUUAUCUGCAUGGGCATT against Mkrn3 here?
A: inactive: -0.616

Q: For GGUUGUUGUUUCAGCAUCCTT against Mrpl18, which z-score is on record?
A: inactive: 0.942

Q: For GGCCUCUAUCUUCCAACAATT against Pols, which z-score is on record?
A: inactive: -0.878

Q: With GGUCGUUGUGUCUGAAUACTT against BC050188 as the sequence, how does the z-score read?
A: inactive: -2.81

Q: For GGAAAUUGCCAAACAUUUUTT against BC030417, which z-score is on record?
A: inactive: -0.933

Q: With CGAGCAUGCAUUCAAAGGATT against Lrrc3b as the sequence, how does the z-score read?
A: inactive: -0.0876

Q: Which z-score does the source give for GGUCAUCUUAUUGAACUUCTT against Edg1 here?
A: inactive: 0.117

Q: Which z-score does the source give for “GCCCAGAGAAUGACCUAUATT against 9130019O22Rik” here?
A: inactive: -0.497

Q: With “CCGACCUCAACUUCAACGATT against 4933428G20Rik” as the sequence, how does the z-score read?
A: inactive: -0.0687

Q: With CGCAUGCACUGAAAUCUACTT against Pop7 as the sequence, how does the z-score read?
A: inactive: -1.03

— PubChem BioAssay AID1347423 (Functional Genomics Laboratory (NCATS/FGL), 2020)
